Measured values published in PubChem BioAssay AID540256 (National Center for Advancing Translational Sciences (NCATS), 2011).
The campaign covered roughly 300,000 compounds. About 3,700 (1.2%) were called active. Inconclusive means that the source gave no clear call. Such entries were picked first, then a sample of the others. Calls come from the whole dose curve; tested in HEK293 cells. Where the call is inconclusive, the potency comes from a doubtful curve fit.

Assay: qHTS for Inhibitors of binding or entry into cells for Lassa Virus; note: nearly all actives have a fitted effect of over 50% in size
Settings: Lassa virus pseudotype entry inhibition, cell reporter; activity change, negative = inhibition: at 37.9 µM (top of the series) unless noted
% is set by controls: 0 for no effect and ±100 for the full control effect; potency is the fitted concentration of half-maximal effect.

| SMILES | Potency | activity change, negative = inhibition |
| --- | --- | --- |
| CN1CCN(c2ccccc2NC(=O)c2ccc(-c3ccc(Cl)cc3Cl)o2)CC1 | inconclusive: 0.92 µM [inhibitor, full curve, poor fit] |  |
| CCCc1ccc(NC(C)C(=O)Nc2ccc(S(=O)(=O)N3CCOCC3)cc2)cc1 (stereo not given) | inconclusive: 0.891 µM [inhibitor, full curve] |  |
| COc1ccc(-c2nc(-c3ccccc3)nc(N3CCN(C)CC3)c2C#N)cc1 |  | inactive: -29.4% |
| Cc1ccc(-c2noc(C3CC(=O)N(c4ccc5c(c4)OCCO5)C3)n2)cc1 (stereo not given) |  | inactive: -6.61% [at 46.1 µM] |
| COc1ccc(C2CC(=O)c3c([nH]c(C(=O)OCCOc4ccccc4)c3C)C2)cc1OC (stereo not given) |  | inactive: -14.6% [at 46.1 µM] |
| CCN1CCN(C(=O)c2cnn(-c3cccc(C)c3)c2C2CCN(C(=O)OC(C)(C)C)CC2)CC1 | inconclusive: 3.98 µM [inhibitor, full curve, poor fit] |  |
| Cc1ccccc1C(=O)Nc1ccccn1 | inconclusive: 5.8 µM [activator, partial curve, poor fit] |  |
| Cc1cccc(Nc2nc(-c3c(C)nc4ccccn34)cs2)c1 | inconclusive: 9.2 µM [inhibitor, partial curve, poor fit] |  |
| COc1cccc(NC(=O)C2CCN(S(=O)(=O)c3cc(-c4noc(C)n4)ccc3C)CC2)c1 | inconclusive: 12.6 µM [inhibitor, single point] |  |
| CCCCOc1ccc(C2/C(=C(/O)c3ccc4c(c3)CC(C)O4)C(=O)C(=O)N2CCCN2CCOCC2)cc1OC (stereo not given) |  | inactive: 13% |
| O=C(NC(=S)Nc1ccc(N2CCCCC2)c(Cl)c1)c1ccc2c(c1)OCCO2 | inconclusive: 0.891 µM [inhibitor, full curve, poor fit] |  |
| CN(C)/C=C1\N=C(c2ccccc2)OC1=O |  | inactive: 12.3% [at 46.1 µM] |
| N/C(=N\OC(=O)Nc1ccccc1)c1ncc(C(F)(F)F)cc1Cl |  | inactive: 9.52% |
| Nc1nc(N)nc(-c2cccc(Br)c2)n1 |  | inactive: 16.1% |
| CC(C)(C)c1ccc(C(=O)NC(=S)Nn2cnnc2)cc1 | inconclusive: 1.58 µM [activator, partial curve, poor fit] |  |
| CCNc1ccc(Br)cc(C(=O)/C=C/c2c(Cl)cccc2Cl)c1=O | inconclusive: 18.3 µM [inhibitor, partial curve, poor fit] |  |
| CC(C)NC(=O)c1sc2ncccc2c1-n1cccc1 | inconclusive: 35.5 µM [activator, single point] |  |
| COc1ccc(CNC(=O)COC(=O)c2cccn2C)cc1 | inconclusive: 35.5 µM [inhibitor, single point] |  |
| Cn1c2ccc(F)cc2c2nnc(SCCN3CCCCC3)nc21 |  | inactive: -6.5% [at 46.1 µM] |
| CSc1ccccc1NC(=O)COC(=O)/C=C/c1ccco1 |  | inactive: 27.5% |
| Cc1cc(=O)[nH]c(SCCCOc2ccc(F)cc2)n1 |  | inactive: 10.1% |
| Cc1ccccc1NC1=C/C(=N\S(=O)(=O)c2cccs2)c2ccccc2C1=O | inconclusive: 7.3 µM [inhibitor, partial curve, poor fit] |  |
| CCOP(=O)(c1ccc(N(C)C)cc1)C(O)c1ccc(Cl)cc1 (stereo not given) | inconclusive: 14.6 µM [activator, partial curve, poor fit] |  |
| COc1cccc(-c2nc3sc4c(c3c(=O)[nH]2)CCCCC4)c1 |  | inactive: 14.7% |

| SMILES | Potency | activity change, negative = inhibition |
| --- | --- | --- |
| CCn1c2ccccc2c2cc(NC(=O)CNCc3ccccc3OC)ccc21 | inconclusive: 2.82 µM [inhibitor, single point] |  |
| CCc1ccc(S(=O)(=O)c2cnc(SCC(=O)Nc3ccc(OC)cc3OC)[nH]c2=O)cc1 | inconclusive: 2.82 µM [inhibitor, single point] |  |
| Cc1ccsc1/C=N/NC(=O)C1C(=O)NCC1c1ccccc1 (stereo not given) |  | inactive: -27.5% [at 46.1 µM] |
| COc1ccc(C2CC(c3ccccc3)=NN2C(=S)Nc2ccccc2)cc1 (stereo not given) |  | inactive: 0.0104% |
| CCCn1c(SCC(=O)Nc2ccc(NC(=O)CC)cc2)nc2c1c(=O)n(C)c(=O)n2C |  | inactive: 12.9% |
| CCOc1ccc(-c2csc(/C(C#N)=C\c3ccc(O)c([N+](=O)[O-])c3)n2)cc1 | inconclusive: 22.4 µM [inhibitor, single point] |  |
| On1c(-c2ccccc2)nc2ccc(Cl)cc21 | inconclusive: 0.103 µM [activator, full curve, poor fit] |  |
| CCCCNS(=O)(=O)c1ccc(NC(=O)Cc2ccccc2[N+](=O)[O-])cc1 |  | inactive: 0.857% |
| COc1ccc(C(=S)N2CCN(c3cccc(Cl)c3)CC2)c(OC)c1 | inconclusive: 2.82 µM [inhibitor, full curve, poor fit] |  |
| O=C(NCCNC(=O)c1ccccc1Cl)c1ccco1 | inconclusive: 35.5 µM [inhibitor, single point] |  |
| COc1ccc(C(C(=O)NC2CCCCC2)N(C(=O)c2snc(C(N)=O)c2N)c2ccccc2OC)cc1 (stereo not given) | active: 10 µM |  |
| Brc1ccc(C2=Nn3c(nnc3-c3n[nH]c4c3CCC4)SC2)cc1 | inconclusive: 0.708 µM [inhibitor, full curve] |  |
| Cc1ccc(C(CC(=O)N2CCCC2)c2ccccc2)c(O)c1C (stereo not given) |  | inactive: 0.0648% |
| COc1ccc(N(CC(=O)Nc2ccc(S(=O)(=O)N3CCOCC3)cc2)S(=O)(=O)c2ccccc2)cc1 | inconclusive: 22.4 µM [inhibitor, partial curve, poor fit] |  |
| CCOC(=O)c1sc2nc3c(cc2c1N)COC(C)(CC)C3 (stereo not given) | inconclusive: 10.3 µM [inhibitor, partial curve, poor fit] |  |
| Cc1onc(-c2c(F)cccc2Cl)c1C(=O)N(C)CCc1ccccn1 |  | inactive: -15.6% |
| O=C(Nc1ccc2nc(-c3ccco3)c(-c3ccco3)nc2c1)NC1CC1 |  | inactive: -13% |
| Cc1nn2c(=O)cc(COC(=O)COc3ccccc3C)nc2s1 |  | inactive: 8.82% [at 46.1 µM] |
| COc1cccc(-c2nc(-c3ccccn3)no2)c1OC |  | inactive: 9.98% |
| Cc1ccccc1C(=O)NCc1ccc2c(c1)CCN2C(=O)c1ccc(F)cc1 | inconclusive: 1.12 µM [inhibitor, full curve, poor fit] |  |
| COc1ccc(NC(=O)c2nc(S(=O)(=O)Cc3ccc(C)cc3)ncc2Cl)cc1 | inconclusive: 35.5 µM [inhibitor, single point] |  |
| CCCCn1c(SCC(=O)Nc2ccc(NC(C)=O)cc2)nc2ccccc2c1=O | inconclusive: 25.1 µM [inhibitor, single point] |  |
| CC1CCC(NC(=O)CCc2cn(Cc3ccc(F)cc3)c3ccccc23)CC1 (stereo not given) | inconclusive: 2 µM [activator, full curve, poor fit] |  |
| O=C(Nc1cccc(S(=O)(=O)C(F)F)c1)c1ccc(S(=O)(=O)N2CCOCC2)cc1 |  | inactive: -9.83% |

Some of the entries so far, with bars between the fields.
SMILES | Potency | activity change, negative = inhibition
COc1ccc(C2CC(c3ccccc3)=NN2C(=S)Nc2ccccc2)cc1 (stereo not given) |  | inactive: 0.0104%
CCCn1c(SCC(=O)Nc2ccc(NC(=O)CC)cc2)nc2c1c(=O)n(C)c(=O)n2C |  | inactive: 12.9%
CCOc1ccc(-c2csc(/C(C#N)=C\c3ccc(O)c([N+](=O)[O-])c3)n2)cc1 | inconclusive: 22.4 µM [inhibitor, single point] | 
On1c(-c2ccccc2)nc2ccc(Cl)cc21 | inconclusive: 0.103 µM [activator, full curve, poor fit] | 
CCCCNS(=O)(=O)c1ccc(NC(=O)Cc2ccccc2[N+](=O)[O-])cc1 |  | inactive: 0.857%

Additional results follow.

| SMILES | Potency | activity change, negative = inhibition |
| --- | --- | --- |
| CCOc1ccc(S(=O)(=O)NCCCl)cc1 | inconclusive: 22.4 µM [inhibitor, single point] |  |
| CCOC(=O)Cn1cnc2c(cnn2-c2ccc(C)c(C)c2)c1=O | inconclusive: 5.62 µM [activator, single point] |  |
| N#C/C(=N\Nc1cccc(Cl)c1)C(=O)c1ccccc1 | inconclusive: 29.1 µM [inhibitor, single point] |  |
| COc1ccc(OC)c(/C=C/C(=O)OCC(=O)Nc2cccc(Oc3ccccc3)c2)c1 | inconclusive: 11.2 µM [inhibitor, partial curve, poor fit] |  |
| COc1ccccc1-c1nc(C#N)c(N2CCc3ccccc3C2)o1 |  | inactive: 4.93% |
| COc1ccc(C(C)=O)cc1COC(=O)c1cc(C)nc2ccccc12 |  | inactive: 13.7% [at 46.1 µM] |
| CC(Nc1nc(N2CCNCC2)nc2ccccc12)c1ccccc1 (stereo not given) | inconclusive: 35.5 µM [inhibitor, single point] |  |
| Oc1ccc(-c2n[nH]c(C(F)(F)F)c2-c2ccccc2)c(O)c1 | inconclusive: 35.5 µM [inhibitor, single point] |  |
| CC(/C=C1\SC(=S)N(CCCC(=O)Nc2ccc(C(=O)O)cc2)C1=O)=C\c1ccccc1 |  | inactive: 0.351% |
| CCc1cccc(CC)c1NC(=O)CSc1nc2ccc(N3C(=O)C4C5C=CC(C5)C4C3=O)cc2s1 (stereo not given) | inconclusive: 17.8 µM [inhibitor, single point] |  |
| O=C(c1ccc([N+](=O)[O-])o1)N1CCN(c2nc3c(Cl)cccc3s2)CC1 | inconclusive: 20 µM [inhibitor, single point] |  |
| CCOC(=O)c1cccc(NC(=O)Nc2cc(OC)ccc2OC)c1 | active: 16.4 µM |  |
| CC(=O)Oc1ccc(N(C(C)=O)S(=O)(=O)c2ccc(C)cc2)c2ccccc12 | inconclusive: 14.1 µM [inhibitor, partial curve, poor fit] |  |
| Cc1sc2c(c1C)c(=O)n(Cc1ccccc1)c(=O)n2CC(=O)Nc1cccc(Cl)c1 |  | inactive: -28.4% [at 46.1 µM] |
| CCC(=O)Nc1ccc(C(=O)CSc2nc3ccccc3cc2CC)cc1 | inconclusive: 8.2 µM [inhibitor, partial curve, poor fit] |  |
| O=C(CCNc1n[nH]c(=O)[nH]c1=O)N/N=C\c1cccc(OCc2ccccc2)c1 | inconclusive: 0.562 µM [activator, partial curve, poor fit] |  |
| COc1ccc(COc2ncnc3ccc(Br)cc23)cc1F |  | inactive: 18.8% |
| CC(=O)Nc1cccc(-c2csc(Nc3ccc(C)cn3)n2)c1 | active: 1.78 µM |  |
| O=C(c1cccc(-c2ccco2)c1)N1CCCC(N2CCN(c3ccc(F)cc3)CC2)C1 (stereo not given) | inconclusive: 22.4 µM [inhibitor, single point] |  |
| C/C(=N/NC(=O)C1COc2ccccc2O1)c1ccc(Br)s1 (stereo not given) | inconclusive: 35.5 µM [inhibitor, single point] |  |
| CCOc1ccccc1N(CC(=O)NC1CCCCC1)C(=O)c1nsc(Cl)c1Cl | inconclusive: 11.2 µM [inhibitor, partial curve, poor fit] |  |
| Cc1[nH]nc(-c2ccc(O)cc2O)c1Oc1ccccc1 | inconclusive: 23.1 µM [inhibitor, single point] |  |
